Data on 1 molecule can be found in paper PMC10932240.

No constants are given. Whether binding was seen depends on the method and setting. Binding seen in cells or lysates may run through a third protein. A yes stands for co-enrichment or nearness to the bait. Other partners may have been found.

This test has as its target PRRSV structural protein GP5 (PRRSV Hn07-1 (Type 2 PRRSV)). Briefly: affinity purification with mass spectrometry; primary PAMs infected with PRRSV (MOI 1, 36 h), NP-40 lysate; anti-PRRSV-GP5 mAb overnight at 4 °C, protein A/G agarose 4 h at 4 °C, five washes; SDS-PAGE, silver stain, bands differing from the IgG-IP lane excised, LC-MS/MS.

B1: VPS18 (protein, UniProt F1SSU6 1-973)
chain: MASILDEYEDSLSRSAVLQPGCPSVGIPHSGYVNAQLEKEAPIFSKQRIDFTPSERITSLVVSCNQLCMSLGKDTLLRIDLGKANEPNHMELGRKDDAKVHKMFLDHTGSHLLIALSSTEVLYVNRNGQKVRPLARWKGQLVESVGWNKALGTESSTGPILVGTAQGQIFEAELSASEGGLFGPAPDLYFRPLYVLNEEGGPAPVCSLEAERGPEGRGFVIATTRQRLFQFIGRASEGAEAQGFSGLFAAYADHPPPFREFPSSLGYSELAFYTPKLRSAPRAFAWMMGDGVLYGSLDCGRPDSLLSEERVWEYPEGVGPGGSPPLAIVLTQFHFLLLLADRVEAVCTLTGQVVLRDHFLEKFGPLRHMVKDSSTGHLWAHTERAVFRYHVQREARDVWRTYLDMNRFDLAKEYCRERPDCLDTVLAREADFCFRQRRYLESARCYALTQSYFEEIALKFLEARQEEALAEFLQRKLASLKPAERTQATLLTTWLTELYLSRLGALQGDPEALNLYRETRERFRAFLSSPRHKEWLFASRASIHELLASHGDTEHMVYFAVIMQDYERVVAYHCQHEAYEEALAVLARHRDPQLFYKFSPILIRHIPRQLVDAWIELGSRLDARQLIPALVNYSQGGEAQQVSQAIRYMEFCVNVLGETEQAIHNYLLSLYARGQPASLLAYLEQAGTSPHRVHYDLKYALRLCAEHGHHRACVHVYKVLELYEEAVDLALQVDVDLAKQCADLPEEDEELRKKLWLKIARHVVQEEEDVQTAMACLASCPLLKIEDVLPFFPDFVTIDHFKEAICSSLKAYNYHIQELQQEMEEATASAQRIRRDLQELRGRYGTVEPQDKCATCDFPLLNRPFYLFLCGHMFHADCLLQAVRPGLPAYKQARLEELQRKLGAVPPPSKGSARAKEAEAGVAASGPSREQLKADLDELVAAECVYCGELMIRSIDRPFIDPQCYEEEHLSWL
B1: the binding entry is recorded as “binds”.
